Results are given in words; binding and its absence hold for the method and conditions named. In cells and extracts the contact can be indirect. Some binding calls cover weakened binding; strength is not graded here. Sequences can lack the tags named with a protein.
Molecular target: T1, AtTPX2-GFP (Arabidopsis thaliana targeting protein for Xklp2 fused to GFP) (Arabidopsis thaliana) (UniProt F4I2H7)
T1 sequence: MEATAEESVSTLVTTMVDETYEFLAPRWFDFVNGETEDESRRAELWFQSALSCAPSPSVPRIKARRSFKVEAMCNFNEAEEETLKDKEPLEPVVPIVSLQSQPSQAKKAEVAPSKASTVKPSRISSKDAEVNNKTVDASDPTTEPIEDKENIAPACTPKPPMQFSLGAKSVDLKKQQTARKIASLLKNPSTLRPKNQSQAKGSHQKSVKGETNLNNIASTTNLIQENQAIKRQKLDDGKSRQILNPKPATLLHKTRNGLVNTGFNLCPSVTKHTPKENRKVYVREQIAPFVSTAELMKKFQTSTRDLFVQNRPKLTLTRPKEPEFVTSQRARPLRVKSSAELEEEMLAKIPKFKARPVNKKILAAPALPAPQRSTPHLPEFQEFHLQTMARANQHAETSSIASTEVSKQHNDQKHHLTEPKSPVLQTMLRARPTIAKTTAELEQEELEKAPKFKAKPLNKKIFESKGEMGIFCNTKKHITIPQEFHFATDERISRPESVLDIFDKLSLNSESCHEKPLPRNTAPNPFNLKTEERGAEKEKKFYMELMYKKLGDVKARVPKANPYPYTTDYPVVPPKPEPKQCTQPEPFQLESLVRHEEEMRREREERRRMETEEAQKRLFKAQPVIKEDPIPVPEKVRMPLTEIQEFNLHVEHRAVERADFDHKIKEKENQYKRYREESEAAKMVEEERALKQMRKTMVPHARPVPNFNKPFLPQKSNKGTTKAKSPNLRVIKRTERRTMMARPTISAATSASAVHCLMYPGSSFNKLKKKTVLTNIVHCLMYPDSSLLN
Experiment: co-IP; GFP-Trap or RFP-Trap beads with extract of A. thaliana cell culture co-expressing AtAurora1-RFP and AtTPX2-GFP, 1.5 h at 4 °C; elution with glycine pH 2.5; immunoblot

binding: binds
B1: AtAurora1-RFP (enzyme, UniProt Q9M077 1-294)
chain: MAIPTETQHQEKEASDASAAAAQKRWTLSDFDIGKPLGRGKFGHVYLAREKRSNHVVALKVLFKSQLQQSQVEHQLRREVEIQSHLRHPNILRLYGYFYDQKRVYLILEYAARGELYKDLQKCKYFSERRAATYVASLARALIYCHGKHVIHRDIKPENLLIGAQGELKIADFGWSVHTFNRRRTMCGTLDYLPPEMVESVEHDASVDIWSLGILCYEFLYGVPPFEAMEHSDTYRRIVQVDLKFPPKPIISASAKDLISQMLVKESSQRLPLHKLLEHPWIVQNADPSGIYRV
